Twelve molecules from patent US20060189528A1 can be followed below.

Residue numbers refer to the chain shown, from its start. Numbers in names are those of the source. Results are given in words; binding and its absence hold for the method and conditions named. Some binding calls cover weakened binding; strength is not graded here. For part of these data: Tags and fused reporters may be left off the sequences shown.

Test [1] has as its target T1, RANKL (human) (UniProt O14788).
T1 sequence (looked up): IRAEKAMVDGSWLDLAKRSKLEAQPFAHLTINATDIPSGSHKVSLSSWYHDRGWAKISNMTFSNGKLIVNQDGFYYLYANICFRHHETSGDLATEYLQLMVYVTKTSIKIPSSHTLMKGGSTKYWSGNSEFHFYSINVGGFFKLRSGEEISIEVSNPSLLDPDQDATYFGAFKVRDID
Description: ELISA on coated RANKL, Fc-linked dimer. On the technique in general: In an ELISA, binding on a coated surface is turned into a signal by an enzyme label.

In test [2] the target is T1, RANKL (human). Description: ELISA, wells coated with RANKL at 5 ug/mL, dimeric Fc-linked protein in doubling dilutions from about 10 nM, anti-FLAG detection, A450nm.
Test [3] concerns the target T1, RANKL (human). Description: ELISA (Table 1), Fc-linked dimer.

B1: OPG(22-194).Fc wild type (Fc fusion, not shown: a dimerising Fc or GST; small tags and cut ends)
chain: ETFPPKYLHYDEETSHQLLCDKCPPGTYLKQHCTAKWKTVCAPCPDHYYTDSWHTSDECLYCSPVCKELQYVKQECNRTHNRVCECKEGRYLEIEFCLKHRSCPPGFGVVQAGTPERNTVCKRCPDGFFSNETSSKAPCRKHTNCSVFGLLLTQKGNATHDNICSGNSESTQK
Take B1: the binding result in test [1] and in test [2] was “binds” in each case.

B2: OVP I115E (Fc fusion, not shown: a dimerising Fc or GST; small tags and cut ends)
chain: B1 chain with I94E
As to B2, the binding entry in test [3] is listed as “binds”.

B3: OVP I115D (Fc fusion, not shown: a dimerising Fc or GST; small tags and cut ends)
chain: B1 chain with I94D
As for B3, the binding result in test [2] and in test [3] was “binds” throughout.

B4: OVP I115A (Fc fusion, not shown: a dimerising Fc or GST; small tags and cut ends)
chain: B1 chain with I94A
Take B4: the binding result in test [2] is given as “binds”.

B5: OVP I115S (Fc fusion, not shown: a dimerising Fc or GST; small tags and cut ends)
chain: B1 chain with I94S
B5: the binding result in test [2] is on record as “binds”.

B6: OVP I115R (Fc fusion, not shown: a dimerising Fc or GST; small tags and cut ends)
chain: B1 chain with I94R
As to B6, the binding entry in test [2] is recorded as “binds”.

B7: OVP I115N (Fc fusion, not shown: a dimerising Fc or GST; small tags and cut ends)
chain: B1 chain with I94N
Take B7: the binding entry in test [3] is recorded as “binds”.

B8: OVP I115G (Fc fusion, not shown: a dimerising Fc or GST; small tags and cut ends)
chain: B1 chain with I94G
In the case of B8, the binding entry in test [2] and in test [3] was “binds” each time.

B9: OVP I115L (Fc fusion, not shown: a dimerising Fc or GST; small tags and cut ends)
chain: B1 chain with I94L
Turning to B9, the binding entry in test [2] was “binds”.

B10: OVP I115M (Fc fusion, not shown: a dimerising Fc or GST; small tags and cut ends)
chain: B1 chain with I94M
As for B10, the binding entry in test [3] is “binds”.

B11: OVP I115T, K51R, R111H (Fc fusion, not shown: a dimerising Fc or GST; small tags and cut ends)
chain: B1 chain with K30R, R90H, I94T
In the case of B11, the binding entry in test [2] was “binds”.

B12: OVP I115M, R122G (Fc fusion, not shown: a dimerising Fc or GST; small tags and cut ends)
chain: B1 chain with I94M, R101G
On to B12, for which the binding result in test [2] is reported as “binds”.
